Measurements as given in PubChem BioAssay AID504467 (National Center for Advancing Translational Sciences (NCATS), 2011).
Among all 330,000 compounds or so, about 7,700 (2.3%) were called active. Inconclusive results, whose numbers are uncertain, are shown with a selection of clear calls. Calls come from the whole dose curve; as a rule, active = well fitted inhibition curve with a large enough effect; inconclusive = small, poorly fitted or top-dose-only effect, or effect the other way; inactive = flat fitted curve, though single readings scatter. A potency beside an inconclusive call is a rough fit, not a confirmed value.
% is set by controls: 0 for no effect and ±100 for the full control effect; potency is the fitted concentration of half-maximal effect.

Experiment: qHTS screen for small molecules that inhibit ELG1-dependent DNA repair in human embryonic kidney (HEK293T) cells expressing luciferase-tagged ELG1; note: nearly all actives have a fitted effect of over 55% in size
Settings: HEK293T ELG1-luciferase reporter, luminescence, 16 h, DNA damage induced by 5-fluorouridine; activity change, negative = inhibition: at 46.1 µM (top of the series)
Procedure, shortened: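 Overnight (16 hr) co-exposure of 2,000 cells/well to 5-fluorouridine and compound at 37 °C preceded detection. Luciferase was quantified via ONE-Glo luminescence; loss of signal denotes inhibition.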
For `Fc1ccc(CNc2nc3ccccc3n3cnnc23)cc1`, the Potency was inconclusive: 32.6 µM [activator, partial curve, poor fit]. For `COc1ccc(CCNC(=O)C(=O)NCC2OCCN2S(=O)(=O)c2ccc(OC)c(OC)c2)cc1` (stereo not drawn), the Potency was inconclusive: 20.6 µM [inhibitor, single point]. With `O=C(C[n+]1cc(-c2ccc(Cl)c(Cl)c2)n2c1CCC2)N1c2ccccc2Sc2ccccc21` the “activity change, negative = inhibition” value was inactive: -15.7%. In the case of `C/C=C/c1ccc(OCCCCN2CCN(CC)CC2)c(OC)c1`, the “activity change, negative = inhibition” value is reported as inactive: 10.3%. With `COc1ccc(CC(=O)N2CCCC(C)C2)cc1` (stereo not drawn) the Potency was inconclusive: 20.6 µM [activator, partial curve, poor fit]. In the case of `C=C(C)CSc1nnc([C@@H](NC(=O)OC(C)(C)C)C(C)CC)o1` (stereo partly drawn), the Potency is reported as inconclusive: 18.4 µM [inhibitor, partial curve, poor fit]. With `Cc1ccccc1OCC(=O)NNC(=S)NC(=O)c1ccccc1[N+](=O)[O-]` the “activity change, negative = inhibition” value was inactive: -5.33%. For `COc1cc(C(=O)NCC(c2cccs2)N2CCc3ccccc32)cc(OC)c1OC` (stereo not drawn), the Potency was inconclusive: 5.17 µM [inhibitor, single point]. With `COc1cc2c(cc1OC)-c1cc(Nc3ccc(C)cc3)nc(=O)n1CC2` the “activity change, negative = inhibition” value was inactive: 2.24%. For `Cc1ccc(CNc2nc(C)nc3sc4c(c23)CCC4)cc1`, the Potency was inconclusive: 25.9 µM [inhibitor, single point]. In the case of `Cn1c(C(=O)N2CCC(C(N)=O)CC2)cc2cc(Cl)ccc21`, the “activity change, negative = inhibition” value is reported as inactive: -8.51%. With `CNc1sc(C(=O)c2ccc(F)cc2)c(N)c1-c1nc2ccccc2s1` the Potency was inconclusive: 20.6 µM [activator, partial curve]. For `CNc1snc(C)c1C(=O)OCC(=O)c1cc(F)ccc1OC`, the “activity change, negative = inhibition” value was inactive: -21.5%. With `CC(C)(C)C(=O)OCc1nc(-c2ccc(F)cc2)cs1` the Potency was inconclusive: 20.6 µM [activator, partial curve]. In the case of `CC(C)[C@H](NC(=O)c1ccccc1F)C(=O)OCC(=O)Nc1sccc1C(N)=O`, the Potency is reported as inconclusive: 9.2 µM [inhibitor, single point]. For `CCOc1ncccc1C(=O)Nc1ncc(C)s1`, the “activity change, negative = inhibition” value was inactive: 10.1%. For `O=C(c1ccco1)N1CCN(C(=O)c2cn(-c3ccccc3)nc2-c2ccccc2)CC1`, the Potency was inconclusive: 18.3 µM [activator, single point]. For `CCOC(=O)NC(=O)CSc1nc(C)cc(C(F)(F)F)c1C#N`, the Potency was inconclusive: 16.4 µM [activator, single point]. For `O=C(c1ccc(Cl)c(S(=O)(=O)N2CCCC2)c1)N1CCN(c2ccccn2)CC1`, the Potency was inconclusive: 23.1 µM [inhibitor, partial curve]. For `NNC(=O)C1CCCN1S(=O)(=O)c1ccc(Cl)cc1` (stereo not drawn), the Potency was inconclusive: 29.1 µM [inhibitor, single point]. With `CC(C)(C)c1cc(OC(=O)c2ccccc2F)ccc1O` the “activity change, negative = inhibition” value was inactive: -6.82%. In the case of `O=[N+]([O-])c1cc(/C=N\O)ccc1Oc1ccc(F)cc1`, the Potency is reported as inconclusive: 9.2 µM [activator, partial curve]. In the case of `CC(=O)Nc1sc(N/N=C\c2ccccc2)nc1-c1cccs1`, the Potency is reported as inconclusive: 16.4 µM [activator, partial curve]. For `Cc1ccccc1-n1c(SCC(=O)N(C)C2CCS(=O)(=O)C2)nnc1-c1ccncc1` (stereo not drawn), the “activity change, negative = inhibition” value was inactive: 1.86%. In the case of `COc1ccc(CN2CCN(c3cc(C)nc4c5c(C)cc(C)nc5nn34)CC2)cc1F`, the “activity change, negative = inhibition” value is reported as inactive: -1.64%. With `COCCNC(=O)c1cc(-c2ccc(OC)c(OC)c2)on1` the Potency was inconclusive: 18.4 µM [activator, single point]. For `O=C(Nc1ccc(F)c(F)c1)C1CCN(S(=O)(=O)c2cccc3nonc23)CC1`, the Potency was inconclusive: 20.6 µM [inhibitor, partial curve, poor fit]. With `CCOC(=O)Nc1cccc(C(=O)O)c1` the Potency was inconclusive: 29.1 µM [activator, single point]. For `O=C(NCC(c1ccccc1Cl)N1CCCC1)c1ccc(N2CCCC2=O)cc1` (stereo not drawn), the Potency was inconclusive: 16.4 µM [activator, partial curve, poor fit]. In the case of `Cc1cc(C)cc(NC(=S)Nc2cccc3cnccc23)c1`, the Potency is reported as inconclusive: 8.2 µM [inhibitor, partial curve]. In the case of `COc1ccc(-c2csc(NC(=O)CSc3n[nH]c(C)n3)n2)cc1`, the Potency is reported as inconclusive: 13 µM [activator, partial curve]. In the case of `O=S(=O)(NCCc1csc(-c2cccnc2)n1)c1cccc(F)c1`, the “activity change, negative = inhibition” value is reported as inactive: 7.5%. In the case of `CC(C)c1ccc(Nc2ncccc2C#N)cc1`, the Potency is reported as inconclusive: 18.4 µM [activator, partial curve]. With `Oc1ccc(-c2cn3c(n2)SCC3)cc1` the Potency was inconclusive: 18.4 µM [activator, single point]. With `CC1(C)Cc2ccccc2C(N/N=C/c2ccc([N+](=O)[O-])cc2)=N1` the Potency was inconclusive: 16.4 µM [activator, single point]. For `O=C1C2C3c4ccccc4C(c4ccccc43)C2C(=O)N1c1cccnc1` (stereo not drawn), the Potency was inconclusive: 16.4 µM [inhibitor, partial curve, poor fit]. With `O=C(c1ccccc1)c1ccc(Cn2cc(CCCO)nn2)cc1` the “activity change, negative = inhibition” value was inactive: 5.13%. With `Cc1cccc2c(=O)oc(-c3ccccc3Cl)nc12` the “activity change, negative = inhibition” value was inactive: -22.5%. For `CC(=O)Oc1ccc2ccccc2c1C(NC(=O)Cc1ccccc1)c1ccccc1` (stereo not drawn), the Potency was inconclusive: 29.1 µM [inhibitor, single point]. For `CC(=O)c1ccc(Oc2ncnc3sccc23)cc1`, the Potency was inconclusive: 13 µM [activator, partial curve]. In the case of `[O-][n+]1onc2c1CCc1[nH]c(-c3ccccc3)nc1-2`, the Potency is reported as inconclusive: 6.51 µM [inhibitor, single point]. With `C=CCn1c(C)cc(C(=O)COC(=O)C2CC(=O)N(Cc3ccccc3)C2)c1C` (stereo not drawn) the Potency was inconclusive: 18.4 µM [activator, partial curve, poor fit]. For `CC(C)CC(=O)Nc1ccc(S(=O)(=O)Nc2nccs2)cc1`, the “activity change, negative = inhibition” value was inactive: 1.99%. With `Cc1cc(C)n(-c2nc(-c3ccccc3)cs2)n1` the Potency was inconclusive: 20.6 µM [activator, partial curve]. For `O=C(Nc1ccc(Cl)cc1)c1cccc(OC(=S)N2CCOCC2)c1`, the Potency was inconclusive: 18.3 µM [inhibitor, partial curve]. With `COc1ccc2c(c1)OC[C@H]1[C@H]2N2C(=O)CN(Cc3ccc(C)cc3)C(=O)[C@@]2(C)[C@H]1c1ccccc1` the Potency was inconclusive: 29.1 µM [inhibitor, single point]. With `CN(C(=S)Nc1ccc(Oc2ccccc2)cc1)C1CCCCC1` the Potency was inconclusive: 29.1 µM [activator, partial curve, poor fit]. In the case of `Cc1cc(C)n2nc(C(=O)OCCOc3ccc(F)cc3)nc2n1`, the “activity change, negative = inhibition” value is reported as inactive: 12.3%. In the case of `O=C(CCCN1CCC(O)(c2cccc(C(F)(F)F)c2)CC1)c1ccc(F)cc1`, the Potency is reported as inconclusive: 35.5 µM [inhibitor, single point]. In the case of `COc1ccc(S(=O)(=O)Nc2ccc(F)cc2)cc1N(C)S(=O)(=O)c1ccc(Cl)cc1`, the “activity change, negative = inhibition” value is reported as inactive: -3.47%. With `O=C(NNC(=O)c1cc(OCC(F)(F)F)ccc1OCC(F)(F)F)c1ccc(Cl)c(Cl)c1` the Potency was inconclusive: 16.4 µM [inhibitor, single point]. In the case of `CC1CCCC(NC(=O)CN(C)S(=O)(=O)c2cccc3cccnc23)C1C` (stereo not drawn), the Potency is reported as inconclusive: 20.6 µM [inhibitor, partial curve]. With `COc1ccccc1NS(=O)(=O)c1cccc(C(=O)N/N=C(\C)c2ccncc2)c1` the Potency was inconclusive: 29.1 µM [activator, single point]. With `Cc1ccc(/C(O)=C2/C(=O)C(=O)N(CC(=O)O)C2c2ccc([N+](=O)[O-])cc2)cc1` (stereo not drawn) the “activity change, negative = inhibition” value was inactive: -12.5%. In the case of `CCOP(=O)(OCC)c1ccc2ccc3ccccc3c(=O)c2c1`, the Potency is reported as inconclusive: 32.6 µM [inhibitor, single point]. In the case of `Cc1ccc(N=Nc2cc(C)ccc2O)c(C)c1`, the Potency is reported as inconclusive: 20.6 µM [activator, partial curve]. With `O=C(CSc1ccc2nnc(-c3ccccn3)n2n1)N1CCN(c2ccccc2)CC1` the Potency was inconclusive: 25.9 µM [inhibitor, partial curve, poor fit]. For `CC1CCN(S(=O)(=O)c2ccc3c(c2)N(CC(=O)NCCCN2CC(C)CC(C)C2)C(=O)CS3)CC1` (stereo not drawn), the Potency was inconclusive: 18.3 µM [activator, single point]. With `O=[N+]([O-])c1cccc(/C([O-])=C(/C(=S)Nc2ccccc2)[n+]2ccccc2)c1` the Potency was inconclusive: 23.1 µM [activator, single point]. For `Cc1c(OCC(=O)C(C)(C)C)ccc2c3c(c(=O)oc12)CCCC3`, the “activity change, negative = inhibition” value was inactive: -27.6%. In the case of `COc1cccc(-c2nc(CCl)cs2)c1OC`, the Potency is reported as inconclusive: 23.1 µM [activator, partial curve]. In the case of `CCc1ccc(CN2CCC(n3nccc3NC(=O)Cc3ccccc3)CC2)o1`, the Potency is reported as inconclusive: 9.2 µM [inhibitor, partial curve, poor fit]. In the case of `O=C(NCCN1C(=O)S/C(=C\c2ccccc2Cl)C1=O)C1=COCCO1`, the “activity change, negative = inhibition” value is reported as inactive: 23.3%. In the case of `CCCCN1C2=C(C(=O)CCC2)C(c2ccc(Cl)c(Cl)c2)C2=C1c1ccccc1C2=O` (stereo not drawn), the “activity change, negative = inhibition” value is reported as inactive: 0.0016%. For `COc1cc2c(cc1NC(=S)Nc1ccccc1C)oc1ccccc12`, the Potency was inconclusive: 18.4 µM [activator, single point]. In the case of `COCCNC(=O)[C@@]1(C)C=C[C@@H](Cc2ccccc2)N1C(=O)c1ccccc1`, the Potency is reported as inconclusive: 25.9 µM [activator, partial curve]. With `O=S(=O)(Nc1nccs1)c1ccc(F)cc1` the Potency was inconclusive: 20.6 µM [activator, partial curve]. For `Cc1ccc(S(=O)(=O)N2CCC[C@H]2C(=O)Nc2ccc(F)cc2C)cc1`, the “activity change, negative = inhibition” value was inactive: -25.5%.
